According to the supplement of paper PMC8090911:
Structures can show the parent of a compound that is named as a salt. The list shows a part of the results. Many values rest on one well or one pass, so single values are uncertain.

Tested on: p95-ErbB2-MCF7
Experiment: perinuclear lysosome accumulation (PNLA, size of LAMP2 puncta), robust Z-score vs plate median; higher = more perinuclear lysosome accumulation (reversal of invasive lysosome distribution)
Details: 5 µM; 24 h

Structure (SMILES) | perinuclear lysosome accumulation
O=[N+]([O-])O[C@H]1CO[C@H]2[C@@H]1OC[C@H]2O[N+](=O)[O-] [Isosorbide dinitrate] | 0.184
C=C1CC[C@@]2(O)[C@H]3Cc4ccc(O)c5c4[C@@]2(CCN3CC2CC2)[C@H]1O5 [Nalmefene hydrochloride] | -0.0853
O=C(CCCN1CCC2(CC1)C(=O)NCN2c1ccccc1)c1ccc(F)cc1 [Spiperone] | -1.33
CC(N)C(O)c1ccccc1 (stereo not drawn) [Phenylpropanolamine hydrochloride] | -0.691
NCC1(CC(=O)O)CCCCC1 [Gabapentin] | -3.3
O=c1[nH]oc2c1CCNC2 [THIP Hydrochloride] | -1.78
C[C@@H]1C[C@@H]([C@H](O)CC2CC(=O)NC(=O)C2)C(=O)[C@@H](C)C1 [Cycloheximide] | -1.79
Cc1cc(C(C#N)c2ccc(Cl)cc2)c(Cl)cc1NC(=O)c1cc(I)cc(I)c1O (stereo not drawn) [Closantel] | 1.06
CC[C@@H](CO)NC(=O)[C@@H]1C=C2c3cccc4[nH]cc(c34)C[C@H]2N(C)C1 [Methylergometrine maleate] | -0.252
CCC(=O)O[C@H]1CC[C@H]2[C@@H]3CCC4=CC(=O)CC[C@]4(C)[C@H]3CC[C@]12C [Testosterone propionate] | -3.52
COc1ccc(OC)c(C(O)C(C)N)c1 (stereo not drawn) [Methoxamine hydrochloride] | -1.07
O=C(CCCN1CCC(n2c(=O)[nH]c3ccccc32)CC1)c1ccc(F)cc1 [Benperidol] | 0.348
C=CCC1(CC(C)C)C(=O)NC(=O)NC1=O [Butalbital] | -0.713
COc1ccc(C(=O)OC2C[C@H]3CC[C@@H](C2)N3C)cc1OC (stereo partly drawn) [Convolamine hydrochloride] | 0.549
C[C@@H]1CN([C@H]2CC[C@](C#N)(c3ccc(F)cc3)CC2)CC[C@]1(C(=O)O)c1ccccc1 [Levocabastine hydrochloride] | -0.62
C[N+]1(C)CCCC(OC(=O)C(O)(c2ccccc2)c2ccccc2)C1 (stereo not drawn) [Mepenzolate bromide] | -0.397
OC(c1ccccc1)(c1ccccc1)C1CCNCC1 [Azacyclonol] | 1.11
C[C@@]12C(=O)OC(=O)[C@]1(C)[C@H]1CC[C@@H]2O1 [Cantharidin] | -0.254
CCC1(C)CC(=O)NC(=O)C1 [Bemegride] | -2.46
CCCC(C)(COC(N)=O)COC(=O)NC(C)C (stereo not drawn) [Carisoprodol] | -0.914
C=C1C[C@@H]2[C@H](CC[C@]3(C)C(=O)CC[C@@H]23)[C@@]2(C)C=CC(=O)C=C12 [Exemestane] | -1.28
CC(=O)[C@H]1CC[C@H]2[C@@H]3CC[C@H]4C[C@H](O)CC[C@]4(C)[C@H]3C(=O)C[C@]12C [Alfaxalone] | -0.446

Structure (SMILES) | perinuclear lysosome accumulation
CN1C(=O)CCS(=O)(=O)C1c1ccc(Cl)cc1 (stereo not drawn) [Chlormezanone] | -0.0196
O=P1(N(CCCl)CCCl)NCCCO1 (stereo not drawn) [Cyclophosphamide] | -1.92
C[C@]12COC(=O)C[C@@H]1CC[C@@H]1[C@@H]2CC[C@@]2(C)[C@H]1CC[C@]2(C)O [Oxandrolone] | -1.38e-05
C[C@]12CCC(=O)C(O)=C1CC[C@@H]1[C@@H]2CC[C@]2(C)C(=O)CC[C@@H]12 [Formestane] | 1.19
CNC(C)(C)Cc1ccccc1 [Mephentermine hemisulfate] | -0.492
CCC1=C[C@H]2CN3CCc4c([nH]c5ccccc45)[C@](C(=O)OC)(C2)[C@H]13 [Catharanthine] | 0.125
CN1[C@@H]2CC[C@H]1C[C@@H](OC(=O)C(CO)c1ccccc1)C2 (stereo partly drawn) [Atropine sulfate monohydrate] | -0.178
CC(C)C[C@H]1C(=O)N2CCC[C@H]2[C@]2(O)O[C@](NC(=O)[C@@H]3C=C4c5cccc6[nH]c(Br)c(c56)C[C@H]4N(C)C3)(C(C)C)C(=O)N12 [Bromocryptine mesylate] | -0.247
CC(C)(N)Cc1ccccc1 [Phentermine hydrochloride] | 0.38
CN1CCc2cc3c(cc2C1O)OCO3 (stereo not drawn) [Hydrastinine hydrochloride] | 0.814
CCNCC(O)c1cccc(O)c1 (stereo not drawn) [Etilefrine hydrochloride] | -0.0215
COc1ccc(C(CN(C)C)C2(O)CCCCC2)cc1 (stereo not drawn) [Venlafaxine] | 0.436
CN(C)C(=O)Oc1cccc([N+](C)(C)C)c1 [Neostigmine bromide] | -0.415
CNC(=O)Oc1ccc2c(c1)[C@]1(C)CCN(C)[C@@H]1N2C [Eserine sulfate, physostigmine sulfate] | 0.318
C[C@@H]1O[C@@H](O[C@@H]2C=C3CC[C@@H]4[C@H](CC[C@]5(C)[C@@H](c6ccc(=O)oc6)CC[C@]45O)[C@@]3(C)CC2)[C@H](O)[C@H](O)[C@H]1O [Proscillaridin A] | 1.38
C#CCN(C)[C@H](C)Cc1ccccc1 [Selegiline hydrochloride] | -0.819
C[C@]12CC[C@@H](O)C[C@H]1CC[C@@H]1[C@@H]2CC[C@]2(C)C(=O)CC[C@@H]12 [3-alpha-Hydroxy-5-beta-androstan-17-one] | 0.0764
O=c1[nH]c2ccccc2n1C1CCN(CCCC(c2ccc(F)cc2)c2ccc(F)cc2)CC1 [Pimozide] | 0.121
NCCC(O)C(=O)NC1CC(N)C(OC2OC(CN)C(O)[C@H](O)[C@@H]2N)[C@H](OC2O[C@H](CO)[C@@H](O)[C@@H]2O)[C@@H]1O (stereo partly drawn) [Butirosin disulfate salt] | -0.623
CC1OC(OC2/C=C/C=C/C=C/C=C/CC/C=C/C=C/[C@H](C)[C@@H](O)[C@@H](C)[C@H](C)OC(=O)CC(O)CC(O)CC(O)CCC(O)C(O)C[C@]3(O)CC(O)C(C(=O)O)C(C2)O3)C(O)C(N)C1O (stereo partly drawn) [Nystatine] | -0.0219
NCCCNCCSP(=O)(O)O [Amifostine] | -2.54

3 entries drawn at random from the list so far, as already listed:
Structure (SMILES) | perinuclear lysosome accumulation
CC(C)(N)Cc1ccccc1 [Phentermine hydrochloride] | 0.38
CN(C)C(=O)Oc1cccc([N+](C)(C)C)c1 [Neostigmine bromide] | -0.415
CC(C)C[C@H]1C(=O)N2CCC[C@H]2[C@]2(O)O[C@](NC(=O)[C@@H]3C=C4c5cccc6[nH]c(Br)c(c56)C[C@H]4N(C)C3)(C(C)C)C(=O)N12 [Bromocryptine mesylate] | -0.247
